Data as given in PubChem BioAssay AID493246 (Drosophila RNAi Screening Center, 2011)
Assay: 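Genome-wide search for dsRNAs that reduce cell number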 (primary screen). Cells: Drosophila Kc and S2R+ cells. Reagents: long dsRNA against Drosophila genes. Measurement: 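Cell number per well after knock-down, printed as raw plate values; calls were based on per-plate z-scores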. Reading the numbers: Kc cell number and S2R+ cell number: higher = more cells remaining. Call rule: 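Active when the per-plate z-score of cell number is 3 or more in the direction of fewer cells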.
In all, the deposit lists about 21,000 reagents; this is a random part of those that have a named target and a result. In the full data, 429 (2%) are marked active. 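Values are raw and not normalised between plates; calls rest on per-plate z-scores that were not deposited.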 Unmarked entries are inactive. A plus sign joins genes that one reagent is predicted to hit. No sequences are given here. The record does not give: the amount of reagent, the time to read-out.

gene	PubChem SID	Kc cell number, rep 1	Kc cell number, rep 2	S2R+ cell number, rep 1	S2R+ cell number, rep 2
CG12713	SID104189692	1.49e6	1.49e6	1.24e6	1.26e6
CG6333	SID104190418	1.52e6	1.66e6	1.37e6	1.50e6
GluRIIA (Glutamate receptor IIA)	SID104183126	1.52e6	1.41e6	1.11e6	1.24e6
CG10737	SID104185791	1.37e6	1.38e6	1.07e6	1.10e6
CG8176	SID104196186	1.50e6	1.48e6	1.23e6	1.41e6
CG2528	SID104183516	1.50e6	1.61e6	1.37e6	3.13e5
CG30047	SID104185132	1.40e6	1.53e6	9.41e5	1.19e6
ens (ensconsin)	SID104188246	1.44e6	1.51e6	1.24e6	1.19e6
CG32639	SID104198764	1.58e6	1.86e6	1.12e6	1.26e6
Frmd5 (FERM domain containing)	SID104182594	1.63e6	1.64e6	1.17e6	1.29e6
alpha-Est2 (alpha-Esterase-2)	SID104192406	1.49e6	1.62e6	1.33e6	1.43e6
Gr8a (Gustatory receptor 8a)	SID104197835	1.62e6	1.56e6	9.81e5	1.14e6
Lgr4 (Leucine-rich repeat-containing G protein-coupled receptor 4)	SID104198761	1.63e6	1.74e6	1.19e6	1.28e6
Lgr4 (Leucine-rich repeat-containing G protein-coupled receptor 4)	SID104198762	1.48e6	2.05e6	1.14e6	1.27e6
Lgr4 (Leucine-rich repeat-containing G protein-coupled receptor 4)	SID104199676	1.53e6	1.49e6	1.05e6	1.13e6
wry (weary)	SID104180144	1.53e6	1.61e6	9.67e5	1.10e6
wry (weary)	SID104180248	1.55e6	1.78e6	1.16e6	1.11e6
witty (without maturity)	SID104182170	1.59e6	1.66e6	1.19e6	1.37e6
dsf (dissatisfaction)	SID104183316	1.38e6	1.34e6	1.03e6	1.21e6
mor (moira)	SID104195170	1.24e6	1.32e6	1.02e6	1.20e6
Clamp (Chromatin-linked adaptor for MSL proteins)	SID104183510	1.43e6	1.49e6	1.10e6	1.25e6
Etl1	SID104182703	1.20e6	1.28e6	1.17e6	1.23e6
CG3618	SID104191538	1.57e6	1.63e6	1.27e6	1.35e6
ATPsyndelta (ATP synthase, delta subunit)	SID104198040	1.45e6	1.44e6	7.78e5	9.13e5
Cpr72Eb (Cuticular protein 72Eb)	SID104189662	1.50e6	1.78e6	1.33e6	1.48e6
TfIIA-S (Transcription-factor-IIA-S)	SID104196675	1.52e6	1.51e6	9.76e5	1.09e6
Grip75	SID104183129	1.71e6	1.68e6	1.25e6	1.41e6
lgs (legless)	SID104196944	5.01e5		8.17e5	
Pglym78 (Phosphoglyceromutase 78)	SID104196579	5.63e5		8.18e5	
SmydA-5 (SET and MYND domain containing, arthropod-specific, member 5)	SID104184659	1.54e6	1.53e6	1.35e6	1.45e6
CG31953 (retired record) + gkt	SID104180501	1.32e6	1.33e6	9.58e5	1.09e6
CG1801	SID104200348	1.66e6	1.79e6	1.18e6	1.38e6
MFS9 (Major Facilitator Superfamily Transporter 9)	SID104195352	1.47e6	1.58e6	1.14e6	1.16e6
aay (astray)	SID104191112	1.37e6	1.49e6	1.23e6	1.20e6
CG14947	SID104182221	1.55e6	1.57e6	1.25e6	1.41e6
CG31778	SID104180075	1.37e6	1.47e6	1.21e6	1.18e6
Cyt-b5-r (Cytochrome b5-related)	SID104183100	1.65e6	1.69e6	1.38e6	1.55e6
vkg (viking)	SID104183424	1.61e6	1.49e6	1.09e6	1.28e6
beta'COP (Coat Protein (coatomer) beta')	SID104183284	1.20e6	1.40e6	8.32e5	9.12e5
Zasp52 (Z band alternatively spliced PDZ-motif protein 52)	SID104186061	1.56e6	1.58e6	9.72e5	1.08e6
Zasp52 (Z band alternatively spliced PDZ-motif protein 52)	SID104186913	1.60e6	1.64e6	1.11e6	1.28e6
CG4066	SID104195333	1.68e6	1.76e6	1.35e6	1.48e6
Ccdc114 (Coiled-coil domain containing protein 114)	SID104194817	1.57e6	1.62e6	1.00e6	1.05e6
CG12325	SID104185922	1.30e6	1.35e6	1.21e6	1.21e6
Mid1	SID104184022	1.20e6	1.25e6	9.88e5	1.12e6
Mid1	SID104184023	1.70e6	1.75e6	1.39e6	1.44e6
Mid1	SID104184100	1.72e6	1.75e6	1.31e6	1.41e6
fan (farinelli)	SID104190722	1.29e6	1.28e6	1.25e6	1.32e6
CG15475	SID104182278	1.52e6	1.64e6	1.38e6	3.37e5
CG5645	SID104190324	1.48e6	1.50e6	1.27e6	1.19e6
dpp (decapentaplegic)	SID104179910	1.63e6	1.66e6	1.06e6	1.27e6
dpp (decapentaplegic)	SID104179913	1.51e6	1.50e6	1.02e6	1.17e6
dpp (decapentaplegic)	SID104180605	1.49e6	1.52e6	9.97e5	1.17e6
Npc2g (Niemann-Pick type C-2g)	SID104194088	1.55e6	1.60e6	1.03e6	1.20e6
CG30492 (retired record) + M7BP	SID104184845	1.51e6	1.59e6	9.88e5	1.10e6
CG30492 (retired record) + M7BP	SID104184846	1.38e6	1.59e6	9.93e5	1.09e6
CG30492 (retired record) + M7BP	SID104184847	1.59e6	1.64e6	1.04e6	1.11e6
CG30492 (retired record) + M7BP	SID104186493	1.58e6	1.60e6	1.27e6	1.47e6
CG30492 (retired record) + M7BP	SID104186608	1.64e6	1.68e6	1.37e6	1.49e6

Part of the list above, set out differently:
Grip75 [SID104183129]: Kc cell number, rep 1 = 1.71e6; Kc cell number, rep 2 = 1.68e6; S2R+ cell number, rep 1 = 1.25e6; S2R+ cell number, rep 2 = 1.41e6
lgs (legless) [SID104196944]: Kc cell number, rep 1 = 5.01e5; S2R+ cell number, rep 1 = 8.17e5
Pglym78 (Phosphoglyceromutase 78) [SID104196579]: Kc cell number, rep 1 = 5.63e5; S2R+ cell number, rep 1 = 8.18e5
SmydA-5 (SET and MYND domain containing, arthropod-specific, member 5) [SID104184659]: Kc cell number, rep 1 = 1.54e6; Kc cell number, rep 2 = 1.53e6; S2R+ cell number, rep 1 = 1.35e6; S2R+ cell number, rep 2 = 1.45e6
